{"source": "patent EP4635954A1", "about": "“INDUCER FOR INDUCING MESENCHYMAL-EPITHELIAL TRANSITION AND REPROGRAMMING” (Iregene Therapeutics Co., Ltd, priority 2022, dated 2024)", "system": "miR-145", "assay": "Isothermal titration calorimetry (ITC), Nano-ITC", "format": "binding", "details": "Multiple Sites model", "source_text": "Isothermal titration calorimetry (ITC) operates based on the principle of power compensation and allows accurate determination of the enthalpy change associated with molecular interactions across a broad concentration range using a single titration experiment. It measures the heat change upon binding and provides a complete thermodynamic profile of nucleic acid-ligand interactions. Quantitative thermodynamic characterization of the complex is essential for understanding the molecular basis of the interaction between the microRNA miR-145 and the small molecule compound. In this invention, the Nano-ITC calorimeter from Waters Corporation was used to validate in vitro the interaction between nucleic acid and small molecule compounds. The experimental procedure involved placing 300 µL of singlestranded miR-145 solution at a concentration of 50 µM into a temperature-controlled sample cell, which was thermally coupled via a thermocouple circuit to a reference cell containing an equal volume of deionized water. As an example, the small molecule A-3-6 was prepared at a concentration of 500 µM and a volume of 50 µL, and loaded into the injection syringe as the ligand. The heat change in the sample cell was measured and balanced against the reference cell, appearing as either endothermic or exothermic peaks. […]"}
{"smiles": "O=C(Cc1ccccc1)Nc1cc2cc[nH]c2cn1", "note": "[Compound A-3-6, 2-Phenyl-N-(1H-pyrrolo[2,3-c]pyridin-5-yl)acetamide]", "values": [{"measurement": "number of binding sites (nSite)", "setting": "first site (Kd 7.017×10^-8 M)", "result": 3}, {"measurement": "number of binding sites (nSite)", "setting": "second site (Kd 7.544×10^-9 M)", "result": 1.8}]}
